Data from patent US20210095036A1.
Results are given in words; binding and its absence hold for the method and conditions named. Some entries that bind do so weakly or less than the wild type.

Protein sequences, listed by entry. Tags and fused reporters are not part of them. Lines headed by an entry give the natural chain unless they say otherwise; changes in a name come on top.
UniProt P01732: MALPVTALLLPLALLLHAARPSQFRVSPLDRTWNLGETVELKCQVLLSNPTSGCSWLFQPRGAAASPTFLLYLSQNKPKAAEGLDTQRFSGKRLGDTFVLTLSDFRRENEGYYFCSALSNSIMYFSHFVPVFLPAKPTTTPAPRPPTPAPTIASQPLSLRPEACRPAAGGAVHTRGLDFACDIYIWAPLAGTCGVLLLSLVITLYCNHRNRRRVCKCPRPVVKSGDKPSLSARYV

What follows are substances tested against GFRα4 isoform b (GFRα4b), Fc fusion (human) (assay: flow cytometry of CAR T cells stained with Fc-fusion antigen and anti-human Fc-specific antibodies (FIG. 19C)).

binding, binds:
CAR-10 (from UniProt P01732 183-206; Q07011 214-255; P20963 52-163)
CAR-14 (from UniProt P01732 183-206; Q07011 214-255; P20963 52-163)
CAR-25 (from UniProt P01732 183-206; Q07011 214-255; P20963 52-163)
CAR-29 (from UniProt P01732 183-206; Q07011 214-255; P20963 52-163)
